These are yes or no findings as the source states them, for the method shown. Binding seen in cells or lysates may run through a third protein. Some entries that bind do so weakly or less than the wild type. For some of these results: Tags and fused reporters may be left off the sequences shown.
Tests used:
[1] = target: Flag-Roc1a (Drosophila melanogaster) (UniProt Q9W5E1); experiment: co-IP; tagged Roc protein or RING-swap chimera immunoprecipitated (anti-FLAG for the FLAG-Roc proteins) from transgenic embryo extracts (0-16 h; NP-40 lysis buffer: 50 mM Tris pH 8.3, 150 mM NaCl, 0.5% NP-40), overnight at 4°C on protein-A beads; co-precipitating endogenous Cullins detected by immunoblot; Flag-Roc1a also tested in the Roc2^KG mutant background (Fig. 8)
[2] = target: T1, Flag-Roc1b (Drosophila melanogaster) (UniProt Q9NHX0); experiment: as above
T1 sequence: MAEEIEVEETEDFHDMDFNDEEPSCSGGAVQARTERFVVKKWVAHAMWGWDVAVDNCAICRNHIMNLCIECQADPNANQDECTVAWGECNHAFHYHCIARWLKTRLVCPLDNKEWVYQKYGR

Chains of the proteins cited; added tags and fusions are not shown.
UniProt Q9W5E1: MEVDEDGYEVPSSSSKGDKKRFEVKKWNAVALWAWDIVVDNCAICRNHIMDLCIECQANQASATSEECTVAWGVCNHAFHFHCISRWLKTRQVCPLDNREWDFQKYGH
UniProt Q24311: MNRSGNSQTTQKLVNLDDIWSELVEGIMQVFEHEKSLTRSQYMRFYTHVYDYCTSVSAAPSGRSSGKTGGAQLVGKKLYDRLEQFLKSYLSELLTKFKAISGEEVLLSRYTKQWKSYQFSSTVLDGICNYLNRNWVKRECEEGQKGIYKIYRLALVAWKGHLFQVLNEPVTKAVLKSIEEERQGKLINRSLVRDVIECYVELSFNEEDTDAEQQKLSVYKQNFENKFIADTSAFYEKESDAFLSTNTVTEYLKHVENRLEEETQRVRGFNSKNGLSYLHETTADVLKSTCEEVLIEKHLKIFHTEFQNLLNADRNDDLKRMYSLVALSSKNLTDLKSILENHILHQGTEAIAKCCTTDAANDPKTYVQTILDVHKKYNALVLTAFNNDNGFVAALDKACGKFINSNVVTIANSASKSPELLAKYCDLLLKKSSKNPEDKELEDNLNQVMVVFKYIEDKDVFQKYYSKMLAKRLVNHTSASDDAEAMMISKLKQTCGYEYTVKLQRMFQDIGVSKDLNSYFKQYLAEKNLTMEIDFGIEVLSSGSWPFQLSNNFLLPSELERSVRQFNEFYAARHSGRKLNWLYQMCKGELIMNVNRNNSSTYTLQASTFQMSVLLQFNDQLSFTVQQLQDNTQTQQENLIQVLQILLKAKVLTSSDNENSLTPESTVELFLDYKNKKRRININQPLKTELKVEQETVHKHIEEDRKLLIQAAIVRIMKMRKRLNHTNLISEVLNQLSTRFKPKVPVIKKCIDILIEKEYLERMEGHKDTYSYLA

[3] = target: T2, V5-Roc1b (control Roc1b construct) (Drosophila melanogaster) (UniProt Q9NHX0); experiment: co-IP; V5-tagged Roc or chimera constructs transfected into S2 cells, lysates 48 h later, anti-V5 immunoprecipitation; endogenous Cul1, Cul3, Cul5 detected by immunoblot
T2 sequence: T1 sequence

[4] = target: V5-Roc1a (control Roc1a construct) (Drosophila melanogaster) (UniProt Q9W5E1); experiment: as above

Cul1 (from UniProt Q24311 1-774)
binding [1]: binds
binding [2]: no binding
binding [3]: no binding
binding [4]: binds

Source: article PMC2500221
